The results in this text go back to paper PMC9117723.

By UniProt entry, the sequences of proteins in these tests, tags left out.
UniProt Q9JKF1: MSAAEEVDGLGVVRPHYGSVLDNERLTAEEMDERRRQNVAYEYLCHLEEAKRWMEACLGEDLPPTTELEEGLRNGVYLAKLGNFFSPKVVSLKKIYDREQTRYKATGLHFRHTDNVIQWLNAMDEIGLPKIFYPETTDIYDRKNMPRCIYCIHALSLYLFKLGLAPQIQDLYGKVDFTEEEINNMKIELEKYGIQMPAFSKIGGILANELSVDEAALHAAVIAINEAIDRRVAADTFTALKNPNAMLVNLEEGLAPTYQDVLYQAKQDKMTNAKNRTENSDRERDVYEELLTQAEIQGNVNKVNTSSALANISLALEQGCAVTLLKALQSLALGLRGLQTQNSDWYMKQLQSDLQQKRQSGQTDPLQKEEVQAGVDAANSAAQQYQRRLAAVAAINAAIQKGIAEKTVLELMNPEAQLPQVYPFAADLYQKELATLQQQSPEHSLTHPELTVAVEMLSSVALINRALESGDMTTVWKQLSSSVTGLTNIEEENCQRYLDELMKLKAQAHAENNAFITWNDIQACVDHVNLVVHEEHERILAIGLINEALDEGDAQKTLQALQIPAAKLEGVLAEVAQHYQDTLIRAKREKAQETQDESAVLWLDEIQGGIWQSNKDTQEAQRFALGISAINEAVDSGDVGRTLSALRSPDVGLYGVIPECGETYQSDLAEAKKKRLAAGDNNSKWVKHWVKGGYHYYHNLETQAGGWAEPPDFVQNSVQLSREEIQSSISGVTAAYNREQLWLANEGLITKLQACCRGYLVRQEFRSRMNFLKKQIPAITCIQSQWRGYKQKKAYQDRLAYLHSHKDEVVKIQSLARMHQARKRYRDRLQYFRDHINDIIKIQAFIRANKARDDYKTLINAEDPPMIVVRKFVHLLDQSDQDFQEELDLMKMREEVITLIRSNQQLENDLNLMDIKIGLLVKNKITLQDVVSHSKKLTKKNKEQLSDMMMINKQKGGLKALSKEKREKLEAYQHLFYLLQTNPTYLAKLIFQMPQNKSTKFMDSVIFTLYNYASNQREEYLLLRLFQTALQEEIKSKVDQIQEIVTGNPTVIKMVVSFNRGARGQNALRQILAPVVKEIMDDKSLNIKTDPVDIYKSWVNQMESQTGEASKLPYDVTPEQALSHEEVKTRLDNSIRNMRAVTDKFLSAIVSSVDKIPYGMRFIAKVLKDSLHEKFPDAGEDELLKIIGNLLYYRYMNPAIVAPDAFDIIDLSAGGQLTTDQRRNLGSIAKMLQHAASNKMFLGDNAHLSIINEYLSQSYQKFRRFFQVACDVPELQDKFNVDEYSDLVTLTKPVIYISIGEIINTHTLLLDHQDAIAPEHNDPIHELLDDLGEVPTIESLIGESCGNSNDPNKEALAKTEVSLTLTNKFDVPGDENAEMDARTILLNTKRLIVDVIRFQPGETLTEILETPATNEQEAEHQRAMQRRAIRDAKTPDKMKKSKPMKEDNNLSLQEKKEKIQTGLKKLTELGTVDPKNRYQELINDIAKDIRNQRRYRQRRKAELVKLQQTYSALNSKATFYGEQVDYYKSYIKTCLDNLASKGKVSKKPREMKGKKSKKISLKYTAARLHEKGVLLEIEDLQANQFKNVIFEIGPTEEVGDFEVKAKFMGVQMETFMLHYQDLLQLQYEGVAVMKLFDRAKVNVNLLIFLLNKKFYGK

The experiment addresses IQGAP1, endogenous in mouse kidney (mouse (endogenous in kidney)) (UniProt Q9JKF1). Nature of the experiment: co-IP; kidney lysates of wild-type and pendrin knockout mice in PBS-T on anti-IQGAP1 antibody on Dynabead Protein-G, room temperature; western blot with anti-SLC26A4 antibody.

These are yes or no findings as the source states them, for the method shown. Binding seen in cells or lysates may run through a third protein. Some binding calls cover weakened binding; strength is not graded here.

B1: SLC26A4 (pendrin), endogenous in mouse kidney (protein, UniProt Q9R155 1-780)
chain: MAARGGRSEPPQLAEYSCSYTVSRPVYSELAFQQQRERRLPERRTLRDSLARSCSCSRKRAFGVVKTLLPILDWLPKYRVKEWLLSDIISGVSTGLVGTLQGMAYALLAAVPVQFGLYSAFFPILTYFVFGTSRHISVGPFPVVSLMVGSVVLSMAPDDHFLVPSGNGSALNSTTLDTGTRDAARVLLASTLTLLVGIIQLVFGGLQIGFIVRYLADPLVGGFTTAAAFQVLVSQLKIVLNVSTKNYNGILSIIYTLIEIFQNIGDTNIADFIAGLLTIIVCMAVKELNDRFKHRIPVPIPIEVIVTIIATAISYGANLEKNYNAGIVKSIPSGFLPPVLPSVGLFSDMLAASFSIAVVAYAIAVSVGKVYATKHDYVIDGNQEFIAFGISNVFSGFFSCFVATTALSRTAVQESTGGKTQVAGLISAVIVMVAIVALGRLLEPLQKSVLAAVVIANLKGMFMQVCDVPRLWKQNKTDAVIWVFTCIMSIILGLDLGLLAGLLFALLTVVLRVQFPSWNGLGSVPSTDIYKSITHYKNLEEPEGVKILRFSSPIFYGNVDGFKKCINSTVGFDAIRVYNKRLKALRRIQKLIKKGQLRATKNGIISDIGSSNNAFEPDEDVEEPEELNIPTKEIEIQVDWNSELPVKVNVPKVPIHSLVLDCGAVSFLDVVGVRSLRMIVKEFQRIDVNVYFALLQDDVLEKMEQCGFFDDNIRKDRFFLTVHDAILHLQNQVKSREGQDSLLETVARIRDCKDPLDLMEAEMNAEELDVQDEAMRRLAS
As for B1, the binding entry was “binds”.
